This assay relates to GABA-gated chloride channel (native, silkworm larval brain neurons, subunits not identified).

Each structure is given as a SMILES string.

Take `NCCCC(=O)O` [γ-aminobutyric acid]: the EC50 is given as ~ 30 µM.

The values are drawn from publication PMC3069973, “A Fungal Metabolite Asperparaline A Strongly and Selectively Blocks Insect Nicotinic Acetylcholine Receptors: The First Report on the Mode of Action” (PLoS ONE, 2011).
